Values quoted from earlier work in patent US10632115B2, “Use of a statin compound as local drug for treating obesity, diabetes, hypertension and hyperlipemia” (Peking University Third Hospital, priority 2015, dated 2020).

What was measured:
[1] = oral, high dose atorvastatin 80 mg; cited from earlier work
[2] = system: non-diabetic patients with hypercholesterolemia; conditions: oral administration; cited from earlier work

SMILES: CC(C)c1c(C(=O)Nc2ccccc2)c(-c2ccccc2)c(-c2ccc(F)cc2)n1CC[C@@H](O)C[C@@H](O)CC(=O)O [atorvastatin]
- effect on glucose metabolism [1]: detrimental
- effect on glucose metabolism [2]: opposite
